PubChem BioAssay AID504774 | Drosophila RNAi Screening Center | 2011
The screen tested about 23,000 reagents; below is a random part of those with a known target gene and a result. 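Values are quantile-normalised luminescence on an arbitrary scale; higher means more cells surviving MMS.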 The numbers tell different reagents against one gene apart. A plus sign joins genes that one reagent is predicted to hit. Not all columns of the deposit are shown.

Screen: 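Fly genes whose loss alters survival after alkylation damage to DNA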 (primary screen)
Cell system: Drosophila Kc167 cells
Reagents: long dsRNA against Drosophila genes, about 0.25 µg dsRNA per well
Time to read-out: about 6 days: 3 days knock-down, then 3 days with or without MMS
Treatment: methyl methanesulphonate 0.004% (w/v) for 3 days after knock-down
Read-out: 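Viability in wells given MMS, read as ATP luminescence, normalised by quantiles plate by plate and averaged across replicates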
Direction: mean viability with MMS and viability with MMS: higher = more surviving cells after MMS

Depletion of CG10984 came out at: mean viability with MMS 3.76e6; viability with MMS, replicate 1 = 4.09e6. After knock-down of COX6B, the screen gave mean viability with MMS 3.65e6; viability with MMS, replicate 1 = 4.10e6. After knock-down of CG34051 the results were mean viability with MMS 3.63e6; viability with MMS, replicate 1 = 4.07e6. SkpD showed mean viability with MMS 3.70e6; viability with MMS, replicate 1 = 4.18e6. ohgt scored mean viability with MMS 3.36e6; viability with MMS, replicate 1 = 3.84e6. Against CG14711 + Zaf1, the entry reads mean viability with MMS 3.54e6; viability with MMS, replicate 1 = 4.00e6.

Silencing of CG9997 resulted in: mean viability with MMS 4.19e6; viability with MMS, replicate 1 = 4.94e6. For CG2187, the entry reads mean viability with MMS 3.64e6; viability with MMS, replicate 1 = 4.09e6. After knock-down of AP-1gamma, the record shows mean viability with MMS 3.44e6; viability with MMS, replicate 1 = 3.91e6. Knock-down of syd came out at: mean viability with MMS 3.54e6; viability with MMS, replicate 1 = 4.02e6. With knock-down of aust, the screen gave mean viability with MMS 3.59e6; viability with MMS, replicate 1 = 3.96e6. With knock-down of CG4988 the results were mean viability with MMS 3.43e6; viability with MMS, replicate 1 = 3.83e6.

Ance-5 gave mean viability with MMS 3.53e6; viability with MMS, replicate 1 = 3.99e6. Against shi, the values are mean viability with MMS 3.60e6; viability with MMS, replicate 1 = 4.22e6. Knock-down of CG7071 + Muted resulted in: mean viability with MMS 3.44e6; viability with MMS, replicate 1 = 3.79e6. After knock-down of RpLP1 #1, the record shows mean viability with MMS 3.30e6; viability with MMS, replicate 1 = 3.63e6. Silencing of RpLP1 #2 resulted in: mean viability with MMS 2.75e6; viability with MMS, replicate 1 = 3.74e6. Silencing of Antp #1 came out at: mean viability with MMS 3.20e6; viability with MMS, replicate 1 = 3.62e6.

With knock-down of Antp #2 the results were mean viability with MMS 3.59e6; viability with MMS, replicate 1 = 4.15e6. After knock-down of slv, the record shows mean viability with MMS 3.66e6; viability with MMS, replicate 1 = 4.11e6. Silencing of CG30344 resulted in: mean viability with MMS 3.63e6; viability with MMS, replicate 1 = 4.06e6. Against mEFTu1, the values are mean viability with MMS 3.78e6; viability with MMS, replicate 1 = 4.28e6. Silencing of CG11741 came out at: mean viability with MMS 3.69e6; viability with MMS, replicate 1 = 4.14e6. With knock-down of Gld2 #1, the record shows mean viability with MMS 2.91e6; viability with MMS, replicate 1 = 3.59e6.

Gld2 #2 showed mean viability with MMS 3.80e6; viability with MMS, replicate 1 = 4.33e6. CG10171 gave mean viability with MMS 3.50e6; viability with MMS, replicate 1 = 3.99e6. yellow-d gave mean viability with MMS 3.58e6; viability with MMS, replicate 1 = 3.95e6. Silencing of CG31121 #1 resulted in: mean viability with MMS 3.66e6; viability with MMS, replicate 1 = 4.13e6. After knock-down of CG31121 #2, the screen gave mean viability with MMS 3.56e6; viability with MMS, replicate 1 = 3.97e6. Silencing of GCS2beta resulted in: mean viability with MMS 1.50e6; viability with MMS, replicate 1 = 3.76e6.

Against CG14989, the values are mean viability with MMS 3.49e6; viability with MMS, replicate 1 = 4.02e6. For CG7906, the values are mean viability with MMS 3.83e6; viability with MMS, replicate 1 = 4.30e6. Depletion of CG9899 resulted in: mean viability with MMS 3.50e6; viability with MMS, replicate 1 = 3.96e6. ine scored mean viability with MMS 3.40e6; viability with MMS, replicate 1 = 3.84e6. CG31635 #1 scored mean viability with MMS 3.78e6; viability with MMS, replicate 1 = 4.40e6. With knock-down of CG31635 #2, the screen gave mean viability with MMS 3.34e6; viability with MMS, replicate 1 = 3.59e6.

Copied from the list.
CG31635 #2, viability with MMS, replicate 1 = 3.59e6
Value for RpLP1 #1 in “mean viability with MMS”: 3.30e6
CG14989, viability with MMS, replicate 1 = 4.02e6
For “viability with MMS, replicate 1”, CG9899 has 3.96e6
Entry of GCS2beta under “mean viability with MMS”: 1.50e6
